{
  "source": "PubChem BioAssay AID248",
  "about": "(DTP/NCI, 2004)",
  "system": "L1210 leukemia ip in BDF1 mice, survival T/C",
  "assay": "NCI In Vivo Anticancer Drug Screen. Data for tumor model L1210 Leukemia (intraperitoneal) in B6D2F1 (BDF1) mice",
  "conditions": "T/C endpoint: mean survival time, higher T/C = longer survival",
  "note": "The list is a part of this screen's results and no random one: it is rich in T/C values a quarter to a half above the control, in often repeated tests (any T/C) and in doses without a T/C. Other doses and runs of a compound stand elsewhere. T/C gives the treated animals as a percentage of the vehicle group. Some doses have a count of surviving animals in place of a T/C: the source holds a T/C of zero for them, seemingly a mark for toxic or unscored doses. Some survivor counts are full or nearly so, which does not show that the dose was tolerated: the source hardly ever lists a survival T/C far under the control, and the zero likely stands for such cases as well. Survivors were counted at the toxicity check, usually on the fifth day, unless a day is given; later deaths do not show. Schedule codes are those of the source, read here as Q, the interval in days (D) or hours (H), X, the number of doses. Some schedule codes hold Z or #, which are not explained here. Some entries were tested several times; the values are given in rising order. For survival time, this PubChem deposit counts one and a half times the control or more as active, and values a quarter to a half above the control carry no call in these data; other NCI protocols may use other cut-offs. Some T/C values carry the count of animals alive at the toxicity check (mostly the fifth day); without a count, all were alive then. Signs of the kind (2×) give the number of equal values in this list.",
  "data": [
    {"smiles": "Nc1n[nH]c(N)n1", "values": [
      {"measurement": "T/C", "setting": "dose: 500.0 mg/kg/injection, schedule: Q01DX Z (ip), vehicle: other", "result": "144 % of control"},
      {"measurement": "T/C", "setting": "dose: 500.0 mg/kg/injection, schedule: Q03HX024 (ip), vehicle: saline", "result": "293 [9 of 10 alive], 306 [9 of 10 alive], 321, 390 % of control"},
      {"measurement": "T/C", "setting": "dose: 512.0 mg/kg/injection, schedule: Q## X024 (ip), vehicle: other", "result": "135 % of control"},
      {"measurement": "T/C", "setting": "dose: 512.0 mg/kg/injection, schedule: Q## X044 (ip), vehicle: other", "result": "140 % of control"},
      {"measurement": "T/C", "setting": "dose: 512.0 mg/kg/injection, schedule: Q#A X012 (ip), vehicle: other", "result": "127 % of control"},
      {"measurement": "T/C", "setting": "dose: 540.0 mg/kg/injection, schedule: Q03HX024 (ip), vehicle: saline, evaluated on day 5", "result": "244 and 465 % of control"},
      {"measurement": "T/C", "setting": "dose: 540.0 mg/kg/injection, schedule: Q03HX024 (ip), vehicle: saline, evaluated on day 45", "result": "244 % of control"},
      {"measurement": "T/C", "setting": "dose: 540.0 mg/kg/injection, schedule: Q03HX024 (ip), vehicle: saline, evaluated on day 60", "result": "465 % of control"},
      {"measurement": "T/C", "setting": "dose: 625.0 mg/kg/injection, schedule: Q03HX032 (ip), vehicle: saline", "result": "142 % of control"},
      {"measurement": "survivor count", "setting": "dose: 750.0 mg/kg/injection, schedule: Q01DX Z (ip), vehicle: methylcellulose (MC)", "result": "3 of 6"},
      {"measurement": "T/C", "setting": "dose: 800.0 mg/kg/injection, schedule: Q01DX006 (iv), vehicle: saline", "result": "133 % of control"},
      {"measurement": "T/C", "setting": "dose: 800.0 mg/kg/injection, schedule: Q01DX009 (ip), vehicle: saline, evaluated on day 30", "result": "100, 123, 133, 134, 136, 140, 141, 143, 145, 150, 154, 159, 161 % of control"},
      {"measurement": "T/C", "setting": "dose: 800.0 mg/kg/injection, schedule: Q01DX009 (ip), vehicle: saline, evaluated on day 60", "result": "131, 145, 150 % of control"},
      {"measurement": "T/C", "setting": "dose: 800.0 mg/kg/injection, schedule: Q01DX009 (ip), vehicle: saline, run until all animals had died", "result": "142 % of control"},
      {"measurement": "T/C", "setting": "dose: 800.0 mg/kg/injection, schedule: Q01DX009 (oral), vehicle: water", "result": "128 % of control"},
      {"measurement": "T/C", "setting": "dose: 800.0 mg/kg/injection, schedule: Q01DX009 (sc), vehicle: saline", "result": "127 % of control"},
      {"measurement": "T/C", "setting": "dose: 800.0 mg/kg/injection, schedule: Q01DX Z (oral), vehicle: saline", "result": "136 % of control"},
      {"measurement": "survivor count", "setting": "dose: 800.0 mg/kg/injection, schedule: Q#A X010 (ip), vehicle: saline", "result": "6 of 6"},
      {"measurement": "T/C", "setting": "dose: 810.0 mg/kg/injection, schedule: Q03HX024 (ip), vehicle: saline, evaluated on day 5", "result": "104 and 235 % of control"},
      {"measurement": "T/C", "setting": "dose: 810.0 mg/kg/injection, schedule: Q03HX024 (ip), vehicle: saline, evaluated on day 45", "result": "104 % of control [9 of 10 alive]"},
      {"measurement": "T/C", "setting": "dose: 810.0 mg/kg/injection, schedule: Q03HX024 (ip), vehicle: saline, evaluated on day 60", "result": "235 % of control"},
      {"measurement": "T/C", "setting": "dose: 900.0 mg/kg/injection, schedule: Q01DX005 (ip), vehicle: water", "result": "134 % of control"},
      {"measurement": "survivor count", "setting": "dose: 1000.0 mg/kg/injection, schedule: Q03HX008 (oral), vehicle: water", "result": "5 of 8"},
      {"measurement": "survivor count", "setting": "dose: 1000.0 mg/kg/injection, schedule: Q03HX024 (oral), vehicle: water", "result": "5 of 8"},
      {"measurement": "survivor count", "setting": "dose: 1000.0 mg/kg/injection, schedule: Q06HX016 (ip), vehicle: saline", "result": "4 of 7 and 5 of 7"},
      {"measurement": "T/C", "setting": "dose: 1000.0 mg/kg/injection, schedule: Q## X006 (oral), vehicle: water", "result": "126 % of control"},
      {"measurement": "T/C", "setting": "dose: 1024.0 mg/kg/injection, schedule: Q## X048 (ip), vehicle: other", "result": "143 % of control"},
      {"measurement": "T/C", "setting": "dose: 1024.0 mg/kg/injection, schedule: Q## X088 (ip), vehicle: other", "result": "143 % of control"},
      {"measurement": "T/C", "setting": "dose: 1600.0 mg/kg/injection, schedule: Q01DX005 (ip), vehicle: saline", "result": "138 % of control"},
      {"measurement": "T/C", "setting": "dose: 1600.0 mg/kg/injection, schedule: Q01DX009 (ip), vehicle: Klucel (hydroxypropylcellulose) (HPC)", "result": "134 and 138 % of control"},
      {"measurement": "T/C", "setting": "dose: 1600.0 mg/kg/injection, schedule: Q01DX009 (ip), vehicle: saline, evaluated on day 30", "result": "91, 97, 122, 124, 129, 140 (2×), 143 (2×), 152, 161, 163 [5 of 6 alive], 168 % of control"}
    ]}
  ]
}
